The text below walks through data of article PMC11758633.

These are yes or no findings as the source states them, for the method shown. Binding seen in cells or lysates may run through a third protein. Some results given as binding are weak or reduced against the parent protein; the word gives no strength.

For the assay, the target named is T1, Mlx (human (endogenous in RPE-1)) (UniProt Q9UH92).
T1 sequence: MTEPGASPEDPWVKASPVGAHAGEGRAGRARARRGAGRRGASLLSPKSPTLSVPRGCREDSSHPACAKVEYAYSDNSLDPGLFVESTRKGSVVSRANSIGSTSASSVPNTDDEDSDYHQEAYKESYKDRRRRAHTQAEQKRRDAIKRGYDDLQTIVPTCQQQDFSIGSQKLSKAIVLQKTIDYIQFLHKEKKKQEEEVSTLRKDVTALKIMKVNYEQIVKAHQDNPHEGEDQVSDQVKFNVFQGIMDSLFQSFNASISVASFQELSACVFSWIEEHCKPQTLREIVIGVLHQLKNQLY
The assay is described as follows: co-IP; endogenous proteins; RPE-1 cells treated with vehicle or 25 uM SFN (4 h in the methods; 0, 4 or 8 h in the legend), lysed in TPER with protease inhibitors; capture overnight at 4 °C with an anti-MLX antibody; MondoA detected by Western blot. (In general: A western blot detects proteins with antibodies after separation by electrophoresis.)

B1: MondoA (protein, UniProt Q9HAP2 1-919)
chain: MAADVFMCSPRRPRSRGRQVLLKPQVSEDDDDSDTDEPSPPPASGAATPARAHASAAPPPPRAGPGREEPPRRQQIIHSGHFMVSSPHREHPPKKGYDFDTVNKQTCQTYSFGKTSSCHLSIDASLTKLFECMTLAYSGKLVSPKWKNFKGLKLQWRDKIRLNNAIWRAWYMQYLEKRKNPVCHFVTPLDGSVDVDEHRRPEAITTEGKYWKSRIEIVIREYHKWRTYFKKRLQQHKDEDLSSLVQDDDMLYWHKHGDGWKTPVPMEEDPLLDTDMLMSEFSDTLFSTLSSHQPVAWPNPREIAHLGNADMIQPGLIPLQPNLDFMDTFEPFQDLFSSSRSIFGSMLPASASAPVPDPNNPPAQESILPTTALPTVSLPDSLIAPPTAPSLAHMDEQGCEHTSRTEDPFIQPTDFGPSEPPLSVPQPFLPVFTMPLLSPSPAPPPISPVLPLVPPPATALNPPAPPTFHQPQKFAGVNKAPSVITHTASATLTHDAPATTFSQSQGLVITTHHPAPSAAPCGLALSPVTRPPQPRLTFVHPKPVSLTGGRPKQPHKIVPAPKPEPVSLVLKNARIAPAAFSGQPQAVIMTSGPLKREGMLASTVSQSNVVIAPAAIARAPGVPEFHSSILVTDLGHGTSSPPAPVSRLFPSTAQDPLGKGEQVPLHGGSPQVTVTGPSRDCPNSGQASPCASEQSPSPQSPQNNCSGKSDPKNVAALKNRQMKHISAEQKRRFNIKMCFDMLNSLISNNSKLTSHAITLQKTVEYITKLQQERGQMQEEARRLREEIEELNATIISCQQLLPATGVPVTRRQFDHMKDMFDEYVKTRTLQNWKFWIFSIIIKPLFESFKGMVSTSSLEELHRTALSWLDQHCSLPILRPMVLSTLRQLSTSTSILTDPAQLPEQASKAVTRIGKRLGES
With B1, the binding entry is reported as “binds”.
